Source: publication PMC2723105, “DNA binding by Corynebacterium glutamicum TetR-type transcription regulator AmtR”
Positions count from the first letter of the chain named. A weaker result is weaker than the reference pair of the same experiment. For some of these results: Protein sequences can lack the tags named with them.

Columns and labels:
Experiment in all cases: SPR
Settings in all cases: SPR: HBS-EP running buffer, 25 °C, BIAcoreX, nonspecific 30-mer DNA in the reference cell; recombinant protein; residues 2-222; protein details: N-terminal MBP (pMalc2); label: 3' biotin on forward strand
[1] = target: T1, AmtR-MBP T42A (Corynebacterium glutamicum ATCC13032) (UniProt H7C699)
T1 sequence (looked up): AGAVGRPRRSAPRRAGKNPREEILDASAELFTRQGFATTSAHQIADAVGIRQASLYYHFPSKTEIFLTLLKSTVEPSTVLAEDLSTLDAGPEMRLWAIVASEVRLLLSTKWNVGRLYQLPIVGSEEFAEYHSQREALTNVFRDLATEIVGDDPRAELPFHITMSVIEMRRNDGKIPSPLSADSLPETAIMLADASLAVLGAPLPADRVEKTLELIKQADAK

[2] = target: T2, AmtR-MBP Y58A (Corynebacterium glutamicum ATCC13032) (UniProt H7C699)
T2 sequence (looked up): T1 sequence (looked up) with A41T, Y57A

[3] = target: AmtR-MBP Y57A (Corynebacterium glutamicum ATCC13032) (UniProt H7C699)
[4] = target: T3, AmtR-MBP S55A (Corynebacterium glutamicum ATCC13032) (UniProt H7C699)
T3 sequence (looked up): T1 sequence (looked up) with A41T, S54A

Measured: binding result

TAAATTACCTGTTAAACTATAGAAAATATC (double strand) [amtBp SPR 30-mer]
binds more weakly: all assays above
